Data: the supplement of paper PMC8728848
This is one part of the list.

Columns and labels:
Assay in all cases: glycan array binding signal (z-score within array); higher = stronger binding
Details in all cases: glycan notation: IUPAC condensed, linker removed
Fuc(a1-2)Gal = target: Fuc(a1-2)Gal
Method in brief: (§1)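 Arrays were curated from the Consortium for Functional Glycomics database, 3228 in total, and kept only where the protein sequence was available. Binding is expressed as a within-array Z-score. This score was averaged across arrays of the same protein sequence at different concentrations or buffers and across linkers, and negative values can be read as non-binding.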

Fuc(a1-2)Gal(b1-3)GalNAc = target: Fuc(a1-2)Gal(b1-3)GalNAc
Method in brief: as §1

[1] = target: Fuc(a1-2)Gal(b1-3)GalNAc(a1-3)[Fuc(a1-2)]Gal(b1-4)Glc
Method in brief: as §1

[2] = target: Fuc(a1-2)Gal(b1-3)GalNAc(a1-3)[Fuc(a1-2)]Gal(b1-4)GlcNAc
Method in brief: as §1

[3] = target: Fuc(a1-2)Gal(b1-3)GalNAc(b1-3)Gal
Method in brief: as §1

[4] = target: Fuc(a1-2)Gal(b1-3)GalNAc(b1-3)Gal(a1-4)Gal(b1-4)Glc
Method in brief: as §1

[5] = target: Fuc(a1-2)Gal(b1-3)GalNAc(b1-4)[Neu5Ac(a2-3)]Gal(b1-4)Glc
Method in brief: as §1

Fuc(a1-2)Gal(b1-3)GlcNAc = target: Fuc(a1-2)Gal(b1-3)GlcNAc
Method in brief: as §1

[6] = target: Fuc(a1-2)Gal(b1-3)GlcNAc(b1-2)Man(a1-3)[Fuc(a1-2)Gal(b1-3)GlcNAc(b1-2)Man(a1-6)]Man(b1-4)GlcNAc(b1-4)GlcNAc
Method in brief: as §1

[7] = target: Fuc(a1-2)Gal(b1-3)GlcNAc(b1-2)Man(a1-3)[Fuc(a1-2)Gal(b1-3)GlcNAc(b1-2)Man(a1-6)]Man(b1-4)GlcNAc(b1-4)[Fuc(a1-6)]GlcNAc
Method in brief: as §1

[8] = target: Fuc(a1-2)Gal(b1-3)GlcNAc(b1-3)Gal(b1-4)Glc
Method in brief: as §1

[9] = target: Fuc(a1-2)Gal(b1-3)GlcNAc(b1-3)GalNAc
Method in brief: as §1

[10] = target: Fuc(a1-2)Gal(b1-3)GlcNAc(b1-3)[Fuc(a1-2)Gal(b1-3)GlcNAc(b1-6)]GalNAc
Method in brief: as §1

[11] = target: Fuc(a1-2)Gal(b1-3)GlcNAc(b1-3)[Gal(b1-4)GlcNAc(b1-6)]Gal(b1-4)Glc
Method in brief: as §1

[12] = target: Fuc(a1-2)Gal(b1-3)GlcNAc(b1-3)[Neu5Ac(a2-6)Gal(b1-4)GlcNAc(b1-6)]Gal(b1-4)Glc
Method in brief: as §1

[13] = target: Fuc(a1-2)Gal(b1-3)GlcNAc6S
Method in brief: as §1

[14] = target: Fuc(a1-2)Gal(b1-3)[Fuc(a1-4)]GlcNAc
Method in brief: as §1

[15] = target: Fuc(a1-2)Gal(b1-3)[Fuc(a1-4)]GlcNAc(b1-2)Man(a1-3)[Fuc(a1-2)Gal(b1-3)[Fuc(a1-4)]GlcNAc(b1-2)Man(a1-3)]Man(b1-4)GlcNAc(b1-4)GlcNAc
Method in brief: as §1

[16] = target: Fuc(a1-2)Gal(b1-3)[Fuc(a1-4)]GlcNAc(b1-2)Man(a1-3)[Fuc(a1-2)Gal(b1-3)[Fuc(a1-4)]GlcNAc(b1-2)Man(a1-6)]Man(b1-4)GlcNAc(b1-4)[Fuc(a1-6)]GlcNAc(b1-4)[Fuc(a1-6)]GlcNAc
Method in brief: as §1

[17] = target: Fuc(a1-2)Gal(b1-3)[Fuc(a1-4)]GlcNAc(b1-3)[Fuc(a1-3)[Gal(b1-4)]GlcNAc(b1-6)]Gal(b1-4)Glc
Method in brief: as §1

[18] = target: Fuc(a1-2)Gal(b1-3)[Fuc(a1-4)]GlcNAc(b1-3)[Gal(b1-4)GlcNAc(b1-6)]Gal(b1-4)Glc
Method in brief: as §1

Fuc(a1-2)Gal(b1-4)Glc = target: Fuc(a1-2)Gal(b1-4)Glc
Method in brief: as §1

Fuc(a1-2)Gal(b1-4)Glc6S = target: Fuc(a1-2)Gal(b1-4)Glc6S
Method in brief: as §1

Fuc(a1-2)Gal(b1-4)GlcNAc = target: Fuc(a1-2)Gal(b1-4)GlcNAc
Method in brief: as §1

[19] = target: Fuc(a1-2)Gal(b1-4)GlcNAc(b1-2)Man
Method in brief: as §1

[20] = target: Fuc(a1-2)Gal(b1-4)GlcNAc(b1-2)Man(a1-3)[Fuc(a1-2)Gal(b1-4)GlcNAc(b1-2)Man(a1-6)]Man(b1-4)GlcNAc(b1-4)GlcNAc
Method in brief: as §1

[21] = target: Fuc(a1-2)Gal(b1-4)GlcNAc(b1-2)Man(a1-3)[Fuc(a1-2)Gal(b1-4)GlcNAc(b1-2)Man(a1-6)]Man(b1-4)GlcNAc(b1-4)[Fuc(a1-6)]GlcNAc
Method in brief: as §1

[22] = target: Fuc(a1-2)Gal(b1-4)GlcNAc(b1-2)[Fuc(a1-2)Gal(b1-4)GlcNAc(b1-4)]Man(a1-3)[Fuc(a1-2)Gal(b1-4)GlcNAc(b1-2)Man(a1-6)]Man(b1-4)GlcNAc(b1-4)GlcNAc
Method in brief: as §1

[23] = target: Fuc(a1-2)Gal(b1-4)GlcNAc(b1-3)Gal(b1-4)GlcNAc
Method in brief: as §1

[24] = target: Fuc(a1-2)Gal(b1-4)GlcNAc(b1-3)Gal(b1-4)GlcNAc(b1-2)Man(a1-3)[Fuc(a1-2)Gal(b1-4)GlcNAc(b1-3)Gal(b1-4)GlcNAc(b1-2)Man(a1-6)]Man(b1-4)GlcNAc(b1-4)GlcNAc
Method in brief: as §1

B1: GS7807F-bth-514-18-514 (Bacteroides thetaiotaomicron) (protein)
chain: AGSCTGNFEEYNTNQFQIHEADPSTLMKSMIETIVNIQQNDSQMMDQMVGQLGGYLTCANVWSGTNFGTFNQSDAWNAGPWNTNFEKIYGNFFQIQEATNESGHYYAFARMIRAITMLRVADCYGPMPYSQVKKGNFYVAYDTEEQVYKNIMEDFASAANVLYNYYKDTNGNAPLASNDPVFSGNYANWARLANSMRLRVAIRISTAYPEMAKENAEAAASHEAGLIEANNDNAMMDCGSQTNPYQLAAVSWGDLRVNANIVDYMNGYGDPRMSKYFNHSTFTGHTQEYVGMRSGEDGFAKSDVAGYSIPAITGTSKLLVFCAAETAFLRAEGKLKNWSVGNKSAKEYYEEGIKLSMEQYGTTMPDNYLTNTEKPTVSHNNDPRGHAYTISNTVAVAWNDNNEEENLQRIITQKWIANYPLGLEAWAEYRRTGYPELYPCIDNLSPSGVDSKRGMRRLRFPYTEVQNNHSNYQQGVSYLKNGGPDNEATDLSWGKTN
Fuc(a1-2)Gal
  glycan array binding signal (z-score): 1.05
Fuc(a1-2)Gal(b1-3)GalNAc
  glycan array binding signal (z-score): -0.828
[1]
  glycan array binding signal (z-score): -0.349
[2]
  glycan array binding signal (z-score): -0.743
[3]
  glycan array binding signal (z-score): 0.272
[4]
  glycan array binding signal (z-score): -0.883
[5]
  glycan array binding signal (z-score): -0.618
Fuc(a1-2)Gal(b1-3)GlcNAc
  glycan array binding signal (z-score): 0.051
[6]
  glycan array binding signal (z-score): 0.69
[7]
  glycan array binding signal (z-score): -0.236
[8]
  glycan array binding signal (z-score): -0.475
[9]
  glycan array binding signal (z-score): -0.223
[10]
  glycan array binding signal (z-score): 0.199
[11]
  glycan array binding signal (z-score): -0.372
[12]
  glycan array binding signal (z-score): -0.461
[13]
  glycan array binding signal (z-score): 0.274
[14]
  glycan array binding signal (z-score): -0.815
[15]
  glycan array binding signal (z-score): -0.43
[16]
  glycan array binding signal (z-score): -0.564
[17]
  glycan array binding signal (z-score): -0.825
[18]
  glycan array binding signal (z-score): 0.364
Fuc(a1-2)Gal(b1-4)Glc
  glycan array binding signal (z-score): -0.812
Fuc(a1-2)Gal(b1-4)Glc6S
  glycan array binding signal (z-score): -0.604
Fuc(a1-2)Gal(b1-4)GlcNAc
  glycan array binding signal (z-score): -0.792
[19]
  glycan array binding signal (z-score): -0.353
[20]
  glycan array binding signal (z-score): 0.988
[21]
  glycan array binding signal (z-score): 0.079
[22]
  glycan array binding signal (z-score): -0.747
[23]
  glycan array binding signal (z-score): -0.828
[24]
  glycan array binding signal (z-score): 0.8
